Data from article PMC12155888 (Molecules, 2025).

What was measured:
[1] = general procedure: solution-phase peptide synthesis; EDCI/HOBt/DIPEA; PyBOP/DMAP for macrolactamization; settings: for step yield: coupling step; for cyclisation yield: cyclisation step
[2] = solution-phase peptide synthesis; EDCI/HOBt/DIPEA; PyBOP/DMAP for macrolactamization; settings: whole synthesis, total yield

In the case of “N-Boc-Me-L-Leu-L-Leu-4-Me-D-Phe-Me-L-Leu-L-Leu-OBn”, the step yield [1] is reported as 88% yield.

With “N-Boc-Me-L-Leu-L-Leu-D-Phe-Me-L-Leu-L-Leu-OBn” the step yield [1] was 86% yield.

“N-Boc-Me-L-Leu-L-Leu-Methylester-D-Asp-Me-L-Leu-L-Leu-OBn” gave a step yield [1] of 88% yield.

With “Cyclo(Me-L-Leu-L-Leu-O-Me-D-Ser-Me-L-Leu-L-Leu)” the cyclisation yield ([1]; on linear precursor 10l) was 52% yield.

In the case of “N-Boc-Me-L-Leu-L-Leu-D-Cyclohexyl-Gly-Me-L-Leu-L-Leu-OBn”, the step yield [1] is reported as 91% yield.

For “N-Boc-Me-L-Leu-D-Leu-L-Leu-Me-L-Leu-D-Leu-OBn”, the step yield [1] was 84% yield.

“N-Boc-Me-L-Leu-L-Leu-Gly-Me-L-Leu-L-Leu-OBn” gave a step yield [1] of 84% yield.

With “Cyclo(Me-L-Leu-L-Leu-4-Bro-D-Phe-Me-L-Leu-L-Leu)” the cyclisation yield ([1]; on linear precursor 10r) was 55% yield.

Work on “N-Boc-Me-L-Leu-L-Leu-O-Me-D-Tyr-Me-L-Leu-L-Leu-OBn” yielded a step yield [1] of 95% yield.

With “N-Boc-Me-D-Leu-D-Leu-L-Leu-Me-D-Leu-D-Leu-OBn” the step yield [1] was 81% yield.

“N-Boc-Me-D-Leu-L-Leu-L-Leu-Me-D-Leu-L-Leu-OBn” gave a step yield [1] of 83% yield.

Work on “N-Boc-Me-D-Leu-L-Leu-D-Leu-Me-D-Leu-L-Leu-OBn” yielded a step yield [1] of 79% yield.

In the case of “N-Boc-Me-L-Leu-L-Leu-3-Flu-D-Phe-Me-L-Leu-L-Leu-OBn”, the step yield [1] is reported as 88% yield.

“Cyclo(Me-D-Leu-D-Leu-L-Leu-Me-D-Leu-D-Leu)” gave a cyclisation yield ([1]; on linear precursor 10g) of 50% yield.

For “N-Boc-Me-L-Leu-D-Leu-D-Leu-Me-L-Leu-D-Leu-OBn”, the step yield [1] was 86% yield.

Work on “N-Boc-Me-L-Leu-L-Leu-3-Me-D-Phe-Me-L-Leu-L-Leu-OBn” yielded a step yield [1] of 85% yield.

“Cyclo(Me-L-Leu-L-Leu-D-Phe-Me-L-Leu-L-Leu)” gave a cyclisation yield ([1]; on linear precursor 10i) of 51% yield.

In the case of linear pentapeptide 8, the step yield [1] is reported as 85% yield.

galaxamide showed a cyclisation yield ([1]; on linear precursor 10a) of 48% yield and an isolated yield [2] of 9.7%.

“Cyclo(Me-D-Leu-L-Leu-D-Leu-Me-D-Leu-L-Leu)” gave a cyclisation yield ([1]; on linear precursor 10d) of 0.45% yield.

Substance “N-Boc-Me-L-Leu-L-Leu-D-Phenyl-Gly-Me-L-Leu-L-Leu-OBn” has a step yield [1] of 87% yield.

For “Cyclo(Me-L-Leu-L-Leu-D-Met-Me-L-Leu-L-Leu)”, the cyclisation yield ([1]; on linear precursor 10v) was 52% yield.

For “N-Boc-Me-L-Leu-L-Leu-2-Me-D-Phe-Me-L-Leu-L-Leu-OBn”, the step yield [1] was 88% yield.

For “Cyclo(Me-L-Leu-L-Leu-Methylester-D-Asp-Me-L-Leu-L-Leu)”, the cyclisation yield ([1]; on linear precursor 10n) was 52% yield.

With “N-Boc-Me-L-Leu-L-Leu-3-Chl-D-Phe-Me-L-Leu-L-Leu-OBn” the step yield [1] was 90% yield.

“Cyclo(Me-D-Leu-L-Leu-L-Leu-Me-D-Leu-L-Leu)” gave a cyclisation yield ([1]; on linear precursor 10c) of 48% yield.

“Cyclo(Me-L-Leu-L-Leu-D-phenyl-Gly-Me-L-Leu-L-Leu)” showed a cyclisation yield ([1]; on linear precursor 10t) of 51% yield.

In the case of “Cyclo(Me-L-Leu-L-Leu-D-cyclohexyl-Gly-Me-L-Leu-L-Leu)”, the cyclisation yield ([1]; on linear precursor 10s) is reported as 51% yield.

With “Cyclo(Me-L-Leu-L-Leu-O-Tyr-Me-L-Leu-L-Leu)” the cyclisation yield ([1]; on linear precursor 10m) was 52% yield.

With “Cyclo(Me-L-Leu-L-Leu-D-Ala-Me-L-Leu-L-Leu)” the cyclisation yield ([1]; on linear precursor 10k) was 49% yield.

For “N-Boc-Me-D-Leu-D-Leu-D-Leu-Me-D-Leu-D-Leu-OBn”, the step yield [1] was 84% yield.

In the case of “Cyclo(Me-L-Leu-D-Leu-L-Leu-Me-L-Leu-D-Leu)”, the cyclisation yield ([1]; on linear precursor 10e) is reported as 45% yield.

In the case of “N-Boc-Me-L-Leu-L-Leu-D-Pro-Me-L-Leu-L-Leu-OBn”, the step yield [1] is reported as 88% yield.

With “Cyclo(Me-L-Leu-L-Leu-D-Leu-Me-L-Leu-L-Leu)” the cyclisation yield ([1]; on linear precursor 10b) was 45% yield.

Work on “N-Boc-Me-L-Leu-L-Leu-3-Bro-D-Phe-Me-L-Leu-L-Leu-OBn” yielded a step yield [1] of 94% yield.

In the case of “N-Boc-Me-L-Leu-L-Leu-D-Met-Me-L-Leu-L-Leu-OBn”, the step yield [1] is reported as 96% yield.

For “Cyclo(Me-L-Leu-D-Leu-D-Leu-Me-L-Leu-D-Leu)”, the cyclisation yield ([1]; on linear precursor 10f) was 54% yield.

In the case of “Cyclo(Me-L-Leu-L-Leu-D-Pro-Me-L-Leu-L-Leu)”, the cyclisation yield ([1]; on linear precursor 10h) is reported as 51% yield.

Substance “N-Boc-Me-L-Leu-L-Leu-O-Me-D-Ser-Me-L-Leu-L-Leu-OBn” has a step yield [1] of 86% yield.

“Cyclo(Me-L-Leu-L-Leu-3-Flu-D-Phe-Me-L-Leu-L-Leu)” showed a cyclisation yield ([1]; on linear precursor 10o) of 53% yield.

“Cyclo(Me-L-Leu-L-Leu-Gly-Me-L-Leu-L-Leu)” gave a cyclisation yield ([1]; on linear precursor 10j) of 51% yield.

With “Cyclo(Me-L-Leu-L-Leu-4-Chl-D-Phe-Me-L-Leu-L-Leu)” the cyclisation yield ([1]; on linear precursor 10q) was 55% yield.

For “Cyclo(Me-L-Leu-L-Leu-2-Me-D-Phe-Me-L-Leu-L-Leu)”, the cyclisation yield ([1]; on linear precursor 10p) was 53% yield.

“Cyclo(Me-L-Leu-L-Leu-D-Val-Me-L-Leu-L-Leu)” gave a cyclisation yield ([1]; on linear precursor 10u) of 50% yield.

In the case of “N-Boc-Me-L-Leu-L-Leu-D-Leu-Me-L-Leu-L-Leu-OBn”, the step yield [1] is reported as 87% yield.

“N-Boc-Me-L-Leu-L-Leu-D-Val-Me-L-Leu-L-Leu-OBn” showed a step yield [1] of 86% yield.

In the case of “N-Boc-Me-L-Leu-L-Leu-D-Ala-Me-L-Leu-L-Leu-OBn”, the step yield [1] is reported as 85% yield.
